# PubChem BioAssay AID493246, Drosophila RNAi Screening Center | 2011
# Assay: 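Genes fly cells need to grow and stay alive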 (primary screen)
# Cells: Drosophila Kc and S2R+ cells
# Reagent: long dsRNA against Drosophila genes
# Read-out: 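Raw, unnormalised count of remaining cells in each well; per-plate z-scores of cell number underlie the calls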
# Direction: Kc cell number and S2R+ cell number: higher = more cells remaining
# Call rule: 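Counted as a hit if cell number falls by a z-score of at least 3 within its plate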
# The deposit covers about 21,000 reagents; below is a random part of those with a known target gene and a result. Over the whole deposit, 429 (2%) were called active. 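Values are raw and not normalised between plates; calls rest on per-plate z-scores that were not deposited.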 The numbers tell different reagents against one gene apart. A plus sign joins genes that one reagent is predicted to hit. The record does not give: the amount of reagent, the time to read-out.
The opening 2 records, ahead of the listing:
gene,reagent,"Kc cell number, rep 1","Kc cell number, rep 2","S2R+ cell number, rep 1","S2R+ cell number, rep 2",Outcome
Mrtf,1,1.26e6,1.42e6,5.76e5,7.30e5,active
Mrtf,2,1.45e6,1.36e6,9.06e5,1.06e6,inactive

The list itself, repeating the preview:
gene,reagent,"Kc cell number, rep 1","Kc cell number, rep 2","S2R+ cell number, rep 1","S2R+ cell number, rep 2",Outcome
Mrtf,1,1.26e6,1.42e6,5.76e5,7.30e5,active
Mrtf,2,1.45e6,1.36e6,9.06e5,1.06e6,inactive
Mrtf,3,1.18e6,1.20e6,1.03e6,1.26e6,inactive
Nup214,1,1.40e6,1.56e6,8.75e5,1.04e6,inactive
haf,1,1.56e6,1.54e6,1.12e6,1.31e6,inactive
Cyp6a21,1,1.70e6,1.63e6,1.27e6,1.34e6,inactive
ppk10,1,1.76e6,1.82e6,1.09e6,1.28e6,inactive
Jwa,1,1.31e6,1.45e6,1.33e6,1.27e6,inactive
CG43707,1,1.65e6,1.53e6,1.23e6,1.39e6,inactive
CG32457,1,1.39e6,1.64e6,1.05e6,1.18e6,inactive
Uggt,1,1.46e6,1.54e6,1.30e6,1.39e6,inactive
CG1677,1,1.53e6,1.50e6,9.64e5,1.10e6,inactive
Obp50c + Obp50b,1,1.52e6,1.52e6,1.03e6,1.15e6,inactive
dock,1,1.19e6,1.39e6,1.07e6,1.11e6,inactive
tei,1,1.86e6,1.74e6,1.23e6,1.43e6,inactive
CG8136,1,1.35e6,1.57e6,1.20e6,1.30e6,inactive
Als2,1,1.47e6,1.54e6,1.14e6,1.19e6,inactive
CG6026,1,1.41e6,1.43e6,1.01e6,1.20e6,inactive
nerfin-2,1,1.63e6,1.61e6,1.25e6,1.30e6,inactive
CG7573,1,1.30e6,1.27e6,1.28e6,1.40e6,inactive
Nsun2,1,6.08e5,,8.81e5,,inactive
CG33253,1,1.68e6,1.68e6,1.14e6,1.28e6,inactive
CG33253,2,1.78e6,1.56e6,1.07e6,1.25e6,inactive
PsGEF (retired record),1,1.41e6,1.42e6,8.54e5,9.72e5,inactive
PsGEF (retired record),2,1.53e6,1.52e6,9.17e5,1.05e6,inactive
CG7924,1,1.47e6,1.56e6,1.24e6,1.26e6,inactive
nenya,1,1.02e6,1.38e6,1.07e6,1.05e6,inactive
CG4286,1,1.49e6,1.58e6,1.26e6,3.47e5,inactive
TTLL6A,1,1.50e6,1.59e6,1.21e6,1.35e6,inactive
Tango9,1,1.55e6,1.66e6,1.24e6,1.30e6,inactive
Aladin,1,5.80e5,,9.15e5,,inactive
CG12974,1,1.51e6,1.62e6,1.18e6,1.36e6,inactive
beta-PheRS,1,1.47e6,1.54e6,1.12e6,1.19e6,inactive
His2Av,1,5.46e5,,8.20e5,,inactive
qjt,1,1.44e6,1.48e6,1.33e6,1.48e6,inactive
CG9289,1,1.50e6,1.55e6,1.28e6,1.49e6,inactive
Ppcs,1,1.53e6,1.57e6,1.19e6,1.20e6,inactive
CG6962,1,1.30e6,1.40e6,7.90e5,9.25e5,inactive
Lpt,1,2.06e6,2.19e6,1.48e6,1.49e6,inactive
Lpt,2,1.52e6,1.68e6,1.02e6,1.04e6,inactive
CG11170,1,1.25e6,1.35e6,1.03e6,1.12e6,inactive
Idgf5,1,1.35e6,1.44e6,1.20e6,1.26e6,inactive
MED14,1,8.70e5,9.58e5,7.17e5,7.52e5,active
CG15888,1,1.37e6,1.46e6,1.22e6,1.31e6,inactive
CG4984 + CG4975,1,1.61e6,1.65e6,1.25e6,1.38e6,inactive
CG4984 + CG4975,2,1.34e6,1.40e6,1.17e6,1.18e6,inactive
CG31345,1,1.82e6,1.95e6,1.37e6,1.48e6,inactive
CG31345,2,1.87e6,1.92e6,1.36e6,1.46e6,inactive
CG10581,1,1.66e6,1.69e6,1.38e6,1.51e6,inactive
CG2641,1,1.53e6,1.70e6,1.22e6,1.30e6,inactive
CG15073,1,1.70e6,1.73e6,1.24e6,1.38e6,inactive
Elp3,1,1.50e6,1.43e6,1.11e6,1.25e6,inactive
Muc68D,1,1.33e6,1.40e6,1.25e6,1.20e6,inactive
CG33144,1,1.33e6,1.36e6,1.05e6,1.06e6,inactive
CG33144,2,1.94e6,1.96e6,1.53e6,1.78e6,inactive
CG43773,1,1.72e6,1.71e6,1.12e6,1.28e6,inactive
CG43773,2,1.65e6,1.59e6,1.27e6,1.47e6,inactive
OSCP1,1,1.53e6,1.53e6,1.28e6,1.41e6,inactive
CG13871,1,1.74e6,1.75e6,1.35e6,1.57e6,inactive
